PubChem BioAssay AID1259308 | NCATS, 2017
Aim: 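Knock-downs that increase output of a recombinant reporter protein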 (primary screen). Cells: human HEK293 embryonic kidney cells stably expressing firefly luciferase (HEK-CMV-Luc2-Hygro). Knock-down reagent: single siRNA against human genes, 0.8 pmol siRNA per well. Timing: 72 h. Read-out: 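Reporter luminescence and viable-cell signal on separate replicate plates, given as percent of non-targeting control and median/MAD z-scores, plus per-cell luciferase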. Reading the numbers: total luciferase, z-score: higher = more reporter protein produced. Rule for the call: 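Active when the median/MAD z-score for overall luciferase is greater than 3; a gene was taken forward for validation with new siRNAs if at least two of its three siRNAs passed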. Calls: active = raised luciferase; inactive = no rise.
The whole screen tested about 59,000 reagents; below is a part drawn at random. Of all reagents, about 1,510 (2.6%) got an active call. 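Calls use total luciferase alone and ignore viability, so some active siRNAs may act by altering cell number.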 Unmarked entries are inactive. The numbers tell different reagents against one gene apart. Not all columns of the deposit are shown. Reagent sequences are not shown.

For UGT2A3 #1, the values are total luciferase, z-score 0.519.
After knock-down of UGT2A3 #2, the record shows total luciferase, z-score 0.728.
After knock-down of UGT2A3 #3, the screen gave total luciferase, z-score 0.658.
Silencing of UBE2V2 #1 resulted in: total luciferase, z-score 0.704.
UBE2V2 #2 gave total luciferase, z-score 0.0969.
Knock-down of UBE2V2 #3 resulted in: total luciferase, z-score 1.44.
YARS1 #1 showed total luciferase, z-score 1.48.
With knock-down of YARS1 #2 the results were total luciferase, z-score -0.748.
For YARS1 #3 the deposit lists total luciferase, z-score 1.48.
SLC16A7 #1 gave total luciferase, z-score 0.842.
Knock-down of SLC16A7 #2 resulted in: total luciferase, z-score -1.
SLC16A7 #3 scored total luciferase, z-score 1.67.
Knock-down of LDLRAD1 #1 resulted in: total luciferase, z-score 0.152.
Against LDLRAD1 #2, the entry reads total luciferase, z-score 0.796.
With knock-down of LDLRAD1 #3 the results were total luciferase, z-score 0.406.
CD320 #1 gave total luciferase, z-score 0.84.
With knock-down of CD320 #2, the screen gave total luciferase, z-score 0.403.
CD320 #3 scored total luciferase, z-score -1.71.
For FIBCD1 #1 the deposit lists total luciferase, z-score 0.335.
Silencing of FIBCD1 #2 gave: total luciferase, z-score 0.14.
With knock-down of FIBCD1 #3, the screen gave total luciferase, z-score -0.163.
Depletion of GFRA2 #1 resulted in: total luciferase, z-score 0.255.
GFRA2 #2 scored total luciferase, z-score -0.951.
Silencing of GFRA2 #3 gave: total luciferase, z-score 0.995.
Against HAUS5 #1, the values are total luciferase, z-score -0.149.
With knock-down of HAUS5 #2 the results were total luciferase, z-score -1.56.
With knock-down of HAUS5 #3, the record shows total luciferase, z-score -0.661.
ATE1 #1 showed total luciferase, z-score 0.208.
ATE1 #2 gave total luciferase, z-score -0.299.
Against ATE1 #3, the values are total luciferase, z-score 1.82.
With knock-down of LINC00200 #1, the record shows total luciferase, z-score 0.273.
LINC00200 #2 gave total luciferase, z-score 2.05.
Depletion of LINC00200 #3 gave: total luciferase, z-score 0.844.
ACTRT3 #1 gave total luciferase, z-score 0.351.
Against ACTRT3 #2, the entry reads total luciferase, z-score -0.715.
ACTRT3 #3 showed total luciferase, z-score -1.04.
For VGLL4 #1, the values are total luciferase, z-score 0.164.
For VGLL4 #2, the values are total luciferase, z-score -0.175.
VGLL4 #3 showed total luciferase, z-score 1.33.
NKD2 #1 showed total luciferase, z-score 2.64.
Depletion of NKD2 #2 gave: total luciferase, z-score 0.925.
Against NKD2 #3, the entry reads total luciferase, z-score 0.0265.
